Laboratory results: patent publication US20110230447A1, “OSTEOGENESIS PROMOTER COMPRISING [4-(METHYLTHIO)PHENYLTHIO]METHANEBISPHOSPHONIC ACID OR PHARMACEUTICALLY ACCEPTABLE SALT THEREOF AS ACTIVE INGREDIENT” (Tohoku University, priority 2008, published 2011)

Tested on: calvariae (bone organ culture system of a mouse)
Experiment: Bone organ culture system of mouse calvariae, staining and confocal laser scanning microscopy
Format: cell-based
Description: Using the bone organ culture system, what kind of effects MPMBP has on production of the bone matrix was studied. From 3-6 day old mice, calvariae were collected aseptically. These were cultured using the Stern and Krieger method (Calcif Tissue hit 1983; 35: 172-17) with DMEM (10% bovine serum supplementation, no supplementation of heparin, supplementation or no supplementation of LPS 10 μg/ml) for 48 hours. After completion of culturing, with the method described by Suzuki, Takeyama et al (J Histochem Cytochem 2005; 53: 1525-1537), a double staining of the type I collagen and alkaline phosphatase (FIG. 6 and FIG. 8), a double staining of the type I collagen and alizarin red (FIG. 7), and an immunohistochemical staining using the type I collagen (FIG. 9) were performed, and using a confocal laser scanning microscope, they were observed.
The upper panels are Nomarski differential interference contrast images of the bone surface. The middle panels are images of the bone surface after the double staining of the type I collagen and alkaline phosphatase was performed, and the lower panels are images of the bone section after the double staining of the type I collagen and alkaline phosphatase was performed, respectively. […]

NCCCC(O)(P(=O)(O)O)P(=O)(O)O [alendronate, reference compound]
concentration indicating the same level of the inhibitory action of the bone resorption in the bone organ culture system: 2.0 µM
